Where two headings read alike, the source gives them in different places. Results are given in words; binding and its absence hold for the method and conditions named. For some assays here: Binding can be weak; no strength is given. For some assays here: Binding seen in cells or lysates may run through a third protein. For some assays here: Tags and fused reporters may be left off the sequences shown. One block for each molecule: values may come before it.
What was measured:
[1] = molecular target: T1, GST-EVH1-Ena (Drosophila) (UniProt Q8T4F7); test: pull-down; GST-EVH1 Ena resin on lysates of cells expressing wild-type or LPPPP-mutant dAbi, immunoblot; only the target purified
T1 sequence: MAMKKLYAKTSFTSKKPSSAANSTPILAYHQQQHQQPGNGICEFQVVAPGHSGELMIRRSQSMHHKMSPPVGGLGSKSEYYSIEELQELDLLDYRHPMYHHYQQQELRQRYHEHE

Sequences of proteins named here, by UniProt entry; tags and fusion partners are left off. A change or cut given only in a name is not applied to a line headed by its entry. A line that says so, or that is headed by a name, gives the form on record, which may keep a tag or linker.
UniProt Q9UI08: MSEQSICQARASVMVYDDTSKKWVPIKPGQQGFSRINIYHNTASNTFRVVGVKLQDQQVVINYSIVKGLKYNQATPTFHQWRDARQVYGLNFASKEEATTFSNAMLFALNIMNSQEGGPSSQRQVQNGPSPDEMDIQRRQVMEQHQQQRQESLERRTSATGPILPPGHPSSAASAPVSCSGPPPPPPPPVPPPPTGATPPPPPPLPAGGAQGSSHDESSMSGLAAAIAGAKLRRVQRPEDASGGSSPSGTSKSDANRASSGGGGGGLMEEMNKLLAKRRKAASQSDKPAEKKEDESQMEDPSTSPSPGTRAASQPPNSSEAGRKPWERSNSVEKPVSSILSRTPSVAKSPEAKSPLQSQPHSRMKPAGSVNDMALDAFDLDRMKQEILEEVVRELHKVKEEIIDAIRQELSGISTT
UniProt P50552: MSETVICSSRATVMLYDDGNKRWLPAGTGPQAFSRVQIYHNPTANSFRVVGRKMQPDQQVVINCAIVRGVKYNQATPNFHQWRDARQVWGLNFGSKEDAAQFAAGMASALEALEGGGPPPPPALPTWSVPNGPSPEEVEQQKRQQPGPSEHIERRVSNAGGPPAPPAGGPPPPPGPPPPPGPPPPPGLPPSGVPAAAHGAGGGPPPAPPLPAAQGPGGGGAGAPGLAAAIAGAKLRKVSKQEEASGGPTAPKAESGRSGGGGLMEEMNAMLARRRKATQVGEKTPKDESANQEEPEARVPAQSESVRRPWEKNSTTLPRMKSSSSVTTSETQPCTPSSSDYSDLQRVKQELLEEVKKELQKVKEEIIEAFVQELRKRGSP
UniProt Q9Y2A7: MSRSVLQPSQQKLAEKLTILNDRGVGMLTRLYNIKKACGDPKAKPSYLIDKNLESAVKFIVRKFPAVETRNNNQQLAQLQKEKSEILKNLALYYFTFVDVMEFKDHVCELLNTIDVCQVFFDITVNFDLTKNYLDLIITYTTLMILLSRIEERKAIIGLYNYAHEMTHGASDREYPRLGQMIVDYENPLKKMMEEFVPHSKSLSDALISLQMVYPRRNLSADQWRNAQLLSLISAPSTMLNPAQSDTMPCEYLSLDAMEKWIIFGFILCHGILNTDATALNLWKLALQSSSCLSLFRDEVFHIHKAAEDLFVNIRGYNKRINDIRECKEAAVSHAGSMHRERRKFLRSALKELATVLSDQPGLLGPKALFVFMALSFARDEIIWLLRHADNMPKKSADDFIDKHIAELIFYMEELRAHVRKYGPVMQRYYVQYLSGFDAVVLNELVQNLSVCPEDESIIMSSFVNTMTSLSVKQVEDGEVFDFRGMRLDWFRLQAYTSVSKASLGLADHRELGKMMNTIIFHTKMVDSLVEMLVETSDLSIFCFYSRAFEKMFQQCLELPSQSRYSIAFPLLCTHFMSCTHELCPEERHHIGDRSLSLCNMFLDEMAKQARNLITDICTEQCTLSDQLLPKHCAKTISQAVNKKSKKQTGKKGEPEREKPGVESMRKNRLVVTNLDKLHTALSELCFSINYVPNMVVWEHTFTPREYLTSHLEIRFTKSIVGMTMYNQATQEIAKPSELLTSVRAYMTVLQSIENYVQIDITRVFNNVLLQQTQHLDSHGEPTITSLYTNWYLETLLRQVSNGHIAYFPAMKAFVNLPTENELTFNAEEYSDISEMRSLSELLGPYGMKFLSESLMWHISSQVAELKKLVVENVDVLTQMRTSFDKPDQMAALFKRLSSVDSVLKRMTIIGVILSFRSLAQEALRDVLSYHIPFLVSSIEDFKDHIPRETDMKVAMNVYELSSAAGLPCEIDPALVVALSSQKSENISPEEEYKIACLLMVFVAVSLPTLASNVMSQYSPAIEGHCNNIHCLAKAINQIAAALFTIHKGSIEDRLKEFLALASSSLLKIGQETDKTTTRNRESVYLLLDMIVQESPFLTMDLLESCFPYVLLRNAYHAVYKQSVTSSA
UniProt Q9Y6W5: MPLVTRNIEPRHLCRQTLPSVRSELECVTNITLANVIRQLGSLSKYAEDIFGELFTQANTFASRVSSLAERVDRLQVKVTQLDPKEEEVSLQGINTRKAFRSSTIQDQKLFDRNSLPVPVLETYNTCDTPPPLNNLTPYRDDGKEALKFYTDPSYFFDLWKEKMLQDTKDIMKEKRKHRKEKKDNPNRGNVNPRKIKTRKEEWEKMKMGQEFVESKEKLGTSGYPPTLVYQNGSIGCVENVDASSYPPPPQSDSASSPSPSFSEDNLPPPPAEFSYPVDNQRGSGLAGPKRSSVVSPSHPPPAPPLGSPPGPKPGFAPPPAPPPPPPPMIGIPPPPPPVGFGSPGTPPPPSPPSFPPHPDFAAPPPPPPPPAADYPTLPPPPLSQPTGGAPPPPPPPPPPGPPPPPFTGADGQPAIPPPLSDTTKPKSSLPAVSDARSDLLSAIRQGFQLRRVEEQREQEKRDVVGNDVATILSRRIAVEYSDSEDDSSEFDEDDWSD
UniProt Q9NYB9: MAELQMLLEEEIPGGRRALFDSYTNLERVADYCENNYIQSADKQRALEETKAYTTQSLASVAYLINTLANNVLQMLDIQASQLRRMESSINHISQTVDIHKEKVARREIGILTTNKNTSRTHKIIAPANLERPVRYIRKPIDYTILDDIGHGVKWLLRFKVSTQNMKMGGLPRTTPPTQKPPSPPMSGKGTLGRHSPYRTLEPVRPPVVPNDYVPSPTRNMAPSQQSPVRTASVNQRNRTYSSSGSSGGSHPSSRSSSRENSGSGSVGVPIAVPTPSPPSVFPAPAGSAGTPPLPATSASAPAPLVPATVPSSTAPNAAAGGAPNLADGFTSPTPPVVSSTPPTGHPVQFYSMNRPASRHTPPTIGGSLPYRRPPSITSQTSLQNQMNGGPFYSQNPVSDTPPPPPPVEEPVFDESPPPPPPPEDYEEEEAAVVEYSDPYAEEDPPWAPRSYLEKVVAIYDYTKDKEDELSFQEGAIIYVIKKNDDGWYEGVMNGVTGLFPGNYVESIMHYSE
UniProt Q92558: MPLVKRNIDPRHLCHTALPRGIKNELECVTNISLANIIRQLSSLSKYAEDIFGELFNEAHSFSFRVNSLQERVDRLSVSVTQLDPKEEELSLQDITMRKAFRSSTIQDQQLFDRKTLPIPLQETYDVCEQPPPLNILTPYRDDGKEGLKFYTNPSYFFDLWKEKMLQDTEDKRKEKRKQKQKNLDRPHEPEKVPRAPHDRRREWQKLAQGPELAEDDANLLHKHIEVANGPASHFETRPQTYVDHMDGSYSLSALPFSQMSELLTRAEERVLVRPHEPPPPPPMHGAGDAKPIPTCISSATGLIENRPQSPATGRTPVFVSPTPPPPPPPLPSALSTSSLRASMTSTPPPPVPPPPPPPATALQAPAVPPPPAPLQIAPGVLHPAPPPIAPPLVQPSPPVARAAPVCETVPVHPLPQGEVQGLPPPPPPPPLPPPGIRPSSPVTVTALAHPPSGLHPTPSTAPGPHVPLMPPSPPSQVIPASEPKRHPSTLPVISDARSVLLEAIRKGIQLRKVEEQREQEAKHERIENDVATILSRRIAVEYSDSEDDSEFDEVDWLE
human Abi1 (bacterially expressed) (Q8IZP0-5, form named): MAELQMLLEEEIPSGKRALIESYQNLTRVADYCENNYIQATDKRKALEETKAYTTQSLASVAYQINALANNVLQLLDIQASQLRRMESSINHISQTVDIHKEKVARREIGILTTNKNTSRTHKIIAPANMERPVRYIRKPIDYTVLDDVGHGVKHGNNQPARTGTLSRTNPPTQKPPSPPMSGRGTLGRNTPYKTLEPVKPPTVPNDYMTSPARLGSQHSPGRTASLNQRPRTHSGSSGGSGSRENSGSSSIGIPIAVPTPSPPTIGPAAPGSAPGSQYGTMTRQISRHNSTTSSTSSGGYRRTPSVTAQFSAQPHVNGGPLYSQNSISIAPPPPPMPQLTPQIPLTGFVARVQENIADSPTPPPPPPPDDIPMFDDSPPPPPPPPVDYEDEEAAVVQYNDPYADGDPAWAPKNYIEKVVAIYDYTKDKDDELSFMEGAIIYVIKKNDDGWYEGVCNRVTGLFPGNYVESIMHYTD

[2] = molecular target: GST-tagged EVH1 domain of Mena (human) (UniProt Q8N8S7); test: pull-down; pull-down with bacterially expressed recombinant proteins (Figures 1C-E, S2B); which partner was on the resin is not told; both purified
[3] = molecular target: T1, GST-EVH1-Ena (Drosophila); test: pull-down; Ena EVH1 resin on Drosophila S2 cell extracts, immunoblot for dAbi and WAVE; only the target purified
[4] = molecular target: GST-tagged EVH1 domain of Evl (UniProt Q9UI08); test: pull-down; pull-down with bacterially expressed recombinant proteins (Figures 1C-E, S2B); which partner was on the resin is not told; both purified
[5] = molecular target: GST-tagged EVH1 domain of VASP (UniProt P50552); test: as above
[6] = molecular target: GST-tagged EVH1 domain of Mena (human) (UniProt Q8N8S7); test: as above; remark: listed apart in the source

binding [1]: no binding
Molecule: GFP-tagged dAbiΔEna (Drosophila)

binding [2]: no binding
Molecule: human Nap1 (bacterially expressed) (from UniProt Q9Y2A7)

binding [1]: binds
Molecule: GFP-tagged dAbi (Drosophila)

binding [3]: binds
Molecule: dAbi (endogenous, S2 cells) (Drosophila (endogenous in S2))

binding [2]: binds
Molecule: human WAVE2 (bacterially expressed) (from UniProt Q9Y6W5 1-498)

binding [3]: binds
Molecule: WAVE (endogenous, S2 cells) (Drosophila (endogenous in S2))

binding [2]: binds
Molecule: human Abi2 (bacterially expressed) (from UniProt Q9NYB9 1-513)

binding [2]: binds
Molecule: human WAVE1 (bacterially expressed) (from UniProt Q92558 1-559)

binding [4]: binds
binding [5]: binds
Molecule: human Abi1 (bacterially expressed) (from UniProt Q8IZP0-5 1-476)

binding [6]: no binding
B1: human WAVE3 (bacterially expressed) (protein, UniProt Q9UPY6 1-502)
chain: MPLVKRNIEPRHLCRGALPEGITSELECVTNSTLAAIIRQLSSLSKHAEDIFGELFNEANNFYIRANSLQDRIDRLAVKVTQLDSTVEEVSLQDINMKKAFKSSTVQDQQVVSKNSIPNPVADIYNQSDKPPPLNILTPYRDDKKDGLKFYTDPSYFFDLWKEKMLQDTEDKRKEKRRQKEQKRIDGTTREVKKVRKARNRRQEWNMMAYDKELRPDNRLSQSVYHGASSEGSLSPDTRSHASDVTDYSYPATPNHSLHPQPVTPSYAAGDVPPHGPASQAAEHEYRPPSASARHMALNRPQQPPPPPPPQAPEGSQASAPMAPADYGMLPAQIIEYYNPSGPPPPPPPPVIPSAQTAFVSPLQMPMQPPFPASASSTHAAPPHPPSTGLLVTAPPPPGPPPPPPGPPGPGSSLSSSPMHGPPVAEAKRQEPAQPPISDARSDLLAAIRMGIQLKKVQEQREQEAKREPVGNDVATILSRRIAVEYSDSDDDSEFDENDWSD

Reference: PMC4165403
